{
  "source": "patent US12084472B2",
  "about": "(Ardelyx, Inc., priority 2015, dated 2024)",
  "system": "Western diet (WD)-fed mice",
  "experiment": "Mouse model of NAFLD and mild diabetes, Western diet (WD)-fed mice: glucose, insulin, liver lipids, GLP levels",
  "assay_type": "in vivo, C57BL/6 male mice",
  "protocol": "Seven week old C57BL/6 male mice were housed 5/cage. Two cages of mice were put on normal chow (Harlan Teklad 2018), and the remaining cages of mice were put on WD (Harlan Teklad, TD.88137, […]/0.2% cholesterol) to induce NAFLD. After 10 weeks, mice were weighed and fasted for 4 h. Blood was collected to measure fasting glucose levels, processed to plasma for measurement of insulin, triglycerides and total cholesterol. This process was repeated on Day 29 of treatment. Based on body weight and fasted glucose and insulin levels, mice were divided into 5 treatment groups (n=10/group), Table 20. […] Mice were weighed twice weekly throughout the study. On the last day of the study (Day 30, 8 hours after food removal), mice were euthanized. Blood was collected in tubes with inhibitors to block DPP-4 activity and processed to plasma for measurement of liver enzymes and GLP levels using an Ace Alera clinical analyzer and the Multi-Array Assay System from Meso Scale Discovery, respectively. The entire liver was collected, weighed, and a sample was taken and weighed for measurement of triglycerides and total cholesterol.\nData for each group are presented as mean±SEM. Statistical analyses were performed using one-way ANOVA followed by Holm-Sidak's multiple comparisons test. For GLP levels, <statistical significance compared to vehicle (WD) is marked as *, P<0.05; **, P<0.01, ***, P<0.001, and ****, P<0.0001; of linagliptin (WD) versus I-389 alone (WD) or linaglptin+I-389 (WD) is marked as †, P<0.05; ††, P<0.01, of †††, P<0.001, and ††††, P<0.0001; and of I-389 (WD) versus linagliptin (WD)+I-389 (WD) is marked as ^, P<0.05; ^ ^P<0.01, ^ ^^P, P<0.001, and ^ ^^^, P<0.0001. For the remaining parameters, statistical significance compared to vehicle (WD) is marked as *, P<0.05; **, P<0.01, ***, P<0.001, and ****, P<0.0001.",
  "note": "At least one structure is not confirmed: it was looked up by name or label, or the drawing left a doubt.",
  "data": [
    {"smiles": "CC#CCn1c(N2CCC[C@@H](N)C2)nc2c1c(=O)n(Cc1nc(C)c3ccccc3n1)c(=O)n2C", "note": "[Linagliptin, linagliptin, reference compound]", "values": [
      {"measurement": "active GLP-1 levels / release", "setting": "Day 30 plasma, I-389 30 mg/kg, linagliptin 10 mg/kg, FIG. 14", "result": "low levels"},
      {"measurement": "total GLP-1 levels", "setting": "Day 30 plasma, I-389 30 mg/kg, linagliptin 10 mg/kg, FIG. 15", "result": "low levels"},
      {"measurement": "body weight", "setting": "data not shown", "result": "did not significantly affect"},
      {"measurement": "GLP-1 secretion", "setting": "linagliptin alone 10 mg/kg QD", "result": "did not induce"},
      {"measurement": "liver total cholesterol levels (in words)", "setting": "vs vehicle (WD)", "result": "increased"}
    ]}
  ]
}
